Test results from PMC7316351, “Cancer-associated mutations in the iron-sulfur domain of FANCJ affect G-quadruplex metabolism”.

Key:
Experiment in all cases: EMSA
Conditions in all cases: 10/40/70 nM protein, 5 nM DNA, no ATP; EMSA: 15 mM Na-phosphate pH 7.4, 45 mM NaCl, 3% glycerol, 40 mM Tris-HCl pH 7.4, 25 mM KCl, 100 ng/ul BSA, 2 mM DTT, 0.1 mM EDTA; 30 min at 25 C; 5% PAGE in 1x TBE; recombinant protein; protein details: N-terminal Flag; label: 5'-FAM on strand 1
FANCJ L340F = molecular target: T1, FANCJ L340F (UniProt Q9BX63)
T1 sequence (looked up, limits assumed): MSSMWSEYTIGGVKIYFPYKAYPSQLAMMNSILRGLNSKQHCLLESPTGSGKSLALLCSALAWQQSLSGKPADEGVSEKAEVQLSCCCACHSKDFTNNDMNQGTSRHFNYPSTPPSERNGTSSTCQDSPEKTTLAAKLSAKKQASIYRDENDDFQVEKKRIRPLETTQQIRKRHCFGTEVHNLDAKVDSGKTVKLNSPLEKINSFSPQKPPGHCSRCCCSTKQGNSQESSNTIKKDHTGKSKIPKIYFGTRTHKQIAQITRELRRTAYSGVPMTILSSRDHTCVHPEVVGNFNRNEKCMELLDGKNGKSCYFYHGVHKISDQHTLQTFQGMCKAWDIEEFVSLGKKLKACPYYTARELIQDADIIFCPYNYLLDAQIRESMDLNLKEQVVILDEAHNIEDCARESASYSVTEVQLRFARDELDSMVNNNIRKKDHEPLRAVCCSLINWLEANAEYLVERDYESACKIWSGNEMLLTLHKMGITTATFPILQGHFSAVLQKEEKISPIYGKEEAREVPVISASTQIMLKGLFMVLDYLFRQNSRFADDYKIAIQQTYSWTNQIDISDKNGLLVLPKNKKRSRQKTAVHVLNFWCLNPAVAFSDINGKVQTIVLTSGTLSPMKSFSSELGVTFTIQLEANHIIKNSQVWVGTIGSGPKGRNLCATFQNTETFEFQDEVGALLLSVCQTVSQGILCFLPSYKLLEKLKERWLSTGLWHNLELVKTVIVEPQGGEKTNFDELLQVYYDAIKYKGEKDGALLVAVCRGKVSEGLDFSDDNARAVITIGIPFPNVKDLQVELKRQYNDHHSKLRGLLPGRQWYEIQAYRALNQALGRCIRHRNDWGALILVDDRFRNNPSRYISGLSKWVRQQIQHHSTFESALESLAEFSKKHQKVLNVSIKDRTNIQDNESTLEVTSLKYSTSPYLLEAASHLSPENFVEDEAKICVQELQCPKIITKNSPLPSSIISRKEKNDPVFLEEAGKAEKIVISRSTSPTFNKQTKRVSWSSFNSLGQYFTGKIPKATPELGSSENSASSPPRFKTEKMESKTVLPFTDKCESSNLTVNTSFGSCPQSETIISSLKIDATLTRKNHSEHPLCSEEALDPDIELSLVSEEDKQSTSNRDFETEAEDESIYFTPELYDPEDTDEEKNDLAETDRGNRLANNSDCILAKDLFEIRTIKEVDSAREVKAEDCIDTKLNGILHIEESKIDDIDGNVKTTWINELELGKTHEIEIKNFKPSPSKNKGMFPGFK

FANCJ C283R = molecular target: T2, FANCJ C283R (UniProt Q9BX63)
T2 sequence (looked up, limits assumed): T1 sequence (looked up, limits assumed) with C283R, F340L

FANCJ C283S = molecular target: T3, FANCJ C283S (UniProt Q9BX63)
T3 sequence (looked up, limits assumed): T1 sequence (looked up, limits assumed) with C283S, F340L

FANCJ WT = molecular target: T4, FANCJ WT (UniProt Q9BX63)
T4 sequence (looked up, limits assumed): T1 sequence (looked up, limits assumed) with F340L

FANCJ A349P = molecular target: T5, FANCJ A349P (UniProt Q9BX63)
T5 sequence (looked up, limits assumed): T1 sequence (looked up, limits assumed) with F340L, A349P

Measured: binding result

GACGCTGCCGAATTCTACCAGTGCCTTGCTAGGACATCTTTG / TTTTTTTTTTTTTTTTTTTTTTTTTTTTTTTTTTTTGGTAGAATTCGGCAGCGT [Y-structure (XO1/sDO1)]
binds: all assays above

Substitutions are numbered along the chain they refer to. Construct, isoform or probe ends are uncertain for at least one entry. At least one verdict rests on a figure or table, not on a statement of the authors. Tags and fusion partners may be left off the protein sequences shown.
